Experimental findings from paper PMC11638004, “Phosphorylation of auxin signaling repressor IAA8 by heat-responsive MPKs causes defective flower development” (Plant Physiology, 2024) are described below.

The chains behind the UniProt entries cited, without tags or fusion partners.
UniProt Q39026: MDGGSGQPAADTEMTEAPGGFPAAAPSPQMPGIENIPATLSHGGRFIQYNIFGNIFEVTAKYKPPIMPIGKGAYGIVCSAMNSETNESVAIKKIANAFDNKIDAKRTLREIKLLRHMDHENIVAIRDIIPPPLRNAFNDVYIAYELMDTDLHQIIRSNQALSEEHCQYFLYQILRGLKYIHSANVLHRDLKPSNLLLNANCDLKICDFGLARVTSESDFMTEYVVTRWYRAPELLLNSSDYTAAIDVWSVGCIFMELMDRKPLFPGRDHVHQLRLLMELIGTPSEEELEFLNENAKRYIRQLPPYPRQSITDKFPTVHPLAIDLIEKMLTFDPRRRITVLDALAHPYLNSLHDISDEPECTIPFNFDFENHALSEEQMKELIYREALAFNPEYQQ

These are yes or no findings as the source states them, for the method shown. For some assays here: Binding seen in cells or lysates may run through a third protein. Some entries that bind do so weakly or less than the wild type. Tags and fused reporters may be left off the sequences shown.

In assay [1] the target is T1, IAA8-NLuc (Arabidopsis thaliana) (UniProt Q38826).
T1 sequence: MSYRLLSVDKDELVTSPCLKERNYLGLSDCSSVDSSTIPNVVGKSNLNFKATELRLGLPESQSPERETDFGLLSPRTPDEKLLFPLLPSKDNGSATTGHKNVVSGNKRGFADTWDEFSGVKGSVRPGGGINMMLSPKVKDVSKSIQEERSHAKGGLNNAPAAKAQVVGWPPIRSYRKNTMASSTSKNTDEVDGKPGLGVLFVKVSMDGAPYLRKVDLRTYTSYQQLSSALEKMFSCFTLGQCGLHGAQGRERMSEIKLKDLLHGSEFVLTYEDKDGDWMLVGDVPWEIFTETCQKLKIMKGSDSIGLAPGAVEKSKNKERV
Kind of assay: split reporter; luciferase complementation imaging (LCI) in N. benthamiana leaves co-infiltrated with NLuc and CLuc fusions, imaged 3 d after infiltration, 100 μM D-luciferin.

For assay [2], the target named is T2, CLuc-TIR1 (Arabidopsis thaliana) (UniProt Q570C0).
T2 sequence: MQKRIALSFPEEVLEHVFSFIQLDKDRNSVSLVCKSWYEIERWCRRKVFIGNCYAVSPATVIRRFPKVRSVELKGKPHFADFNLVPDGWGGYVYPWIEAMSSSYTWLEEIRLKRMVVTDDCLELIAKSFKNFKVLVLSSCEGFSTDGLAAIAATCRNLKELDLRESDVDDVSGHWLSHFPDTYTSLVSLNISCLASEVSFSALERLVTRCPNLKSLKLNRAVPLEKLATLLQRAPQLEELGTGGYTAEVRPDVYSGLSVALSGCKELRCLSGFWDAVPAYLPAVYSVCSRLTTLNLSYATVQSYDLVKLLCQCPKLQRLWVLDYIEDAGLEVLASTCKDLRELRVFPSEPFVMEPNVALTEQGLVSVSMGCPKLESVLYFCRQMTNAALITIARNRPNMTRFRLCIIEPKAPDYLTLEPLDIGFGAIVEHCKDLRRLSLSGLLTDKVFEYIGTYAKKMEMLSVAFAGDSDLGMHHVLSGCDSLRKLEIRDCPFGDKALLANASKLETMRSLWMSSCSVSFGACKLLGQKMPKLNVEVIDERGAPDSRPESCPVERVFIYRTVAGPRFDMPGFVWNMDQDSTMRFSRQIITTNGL
The assay can be described thus: split reporter; luciferase complementation imaging (LCI) in N. benthamiana leaves, IAA8 variants-NLuc with CLuc-TIR1, with or without auxin.

Assay [3] deals with T3, BD-MPK3 (Arabidopsis thaliana) (UniProt Q39023).
T3 sequence: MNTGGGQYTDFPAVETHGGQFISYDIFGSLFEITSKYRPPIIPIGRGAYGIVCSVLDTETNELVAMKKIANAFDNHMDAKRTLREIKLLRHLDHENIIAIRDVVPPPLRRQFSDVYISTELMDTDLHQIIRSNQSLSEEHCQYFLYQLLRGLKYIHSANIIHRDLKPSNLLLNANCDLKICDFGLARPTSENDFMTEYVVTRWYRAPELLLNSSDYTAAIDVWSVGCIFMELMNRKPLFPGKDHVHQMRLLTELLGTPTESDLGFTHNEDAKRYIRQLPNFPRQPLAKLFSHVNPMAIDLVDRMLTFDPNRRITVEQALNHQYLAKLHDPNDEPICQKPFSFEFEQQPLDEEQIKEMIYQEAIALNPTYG
Kind of assay: two-hybrid; IAA8 in pGAD424 (AD), MPKs in pAS2-1 (BD), yeast strain pJ69-4A; growth on SD -Leu/-Trp/-His and X-gal assay for β-galactosidase.

The target in assay [4] is BD-MPK6 (Arabidopsis thaliana) (UniProt Q39026). The assay is described as above.
The target of another assay is T4, SGT1a-NLuc (UniProt Q9SUR9).
T4 sequence: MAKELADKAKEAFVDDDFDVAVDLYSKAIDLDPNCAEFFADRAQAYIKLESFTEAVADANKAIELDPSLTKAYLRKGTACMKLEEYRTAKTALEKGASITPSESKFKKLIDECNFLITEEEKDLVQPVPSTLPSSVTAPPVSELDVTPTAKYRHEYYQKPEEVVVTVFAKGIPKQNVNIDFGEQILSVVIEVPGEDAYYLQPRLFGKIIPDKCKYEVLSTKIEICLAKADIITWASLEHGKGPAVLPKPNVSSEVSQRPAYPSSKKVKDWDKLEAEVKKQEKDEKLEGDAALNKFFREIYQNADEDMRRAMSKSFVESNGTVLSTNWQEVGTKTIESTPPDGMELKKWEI
Kind of assay: split reporter; luciferase complementation imaging (LCI) in N. benthamiana leaves co-infiltrated with NLuc and CLuc fusions, imaged 3 d after infiltration, 100 μM D-luciferin.

Take “CLuc-MPK6 (from UniProt Q39026 1-395) (enzyme)”: the binding entry in assay [1] is on record as “binds”.

B1: CLuc-MPK3 (enzyme, UniProt Q39023 1-370)
chain: MNTGGGQYTDFPAVETHGGQFISYDIFGSLFEITSKYRPPIIPIGRGAYGIVCSVLDTETNELVAMKKIANAFDNHMDAKRTLREIKLLRHLDHENIIAIRDVVPPPLRRQFSDVYISTELMDTDLHQIIRSNQSLSEEHCQYFLYQLLRGLKYIHSANIIHRDLKPSNLLLNANCDLKICDFGLARPTSENDFMTEYVVTRWYRAPELLLNSSDYTAAIDVWSVGCIFMELMNRKPLFPGKDHVHQMRLLTELLGTPTESDLGFTHNEDAKRYIRQLPNFPRQPLAKLFSHVNPMAIDLVDRMLTFDPNRRITVEQALNHQYLAKLHDPNDEPICQKPFSFEFEQQPLDEEQIKEMIYQEAIALNPTYG
B1: the binding result in assay [1] is recorded as “binds”.

B2: IAA8-NLuc (protein, UniProt Q38826 1-321)
chain: MSYRLLSVDKDELVTSPCLKERNYLGLSDCSSVDSSTIPNVVGKSNLNFKATELRLGLPESQSPERETDFGLLSPRTPDEKLLFPLLPSKDNGSATTGHKNVVSGNKRGFADTWDEFSGVKGSVRPGGGINMMLSPKVKDVSKSIQEERSHAKGGLNNAPAAKAQVVGWPPIRSYRKNTMASSTSKNTDEVDGKPGLGVLFVKVSMDGAPYLRKVDLRTYTSYQQLSSALEKMFSCFTLGQCGLHGAQGRERMSEIKLKDLLHGSEFVLTYEDKDGDWMLVGDVPWEIFTETCQKLKIMKGSDSIGLAPGAVEKSKNKERV
For the molecule B2, in assay [2], the binding entry is “binds”.

B3: AD-IAA8 (protein, UniProt Q38826 1-321)
chain: MSYRLLSVDKDELVTSPCLKERNYLGLSDCSSVDSSTIPNVVGKSNLNFKATELRLGLPESQSPERETDFGLLSPRTPDEKLLFPLLPSKDNGSATTGHKNVVSGNKRGFADTWDEFSGVKGSVRPGGGINMMLSPKVKDVSKSIQEERSHAKGGLNNAPAAKAQVVGWPPIRSYRKNTMASSTSKNTDEVDGKPGLGVLFVKVSMDGAPYLRKVDLRTYTSYQQLSSALEKMFSCFTLGQCGLHGAQGRERMSEIKLKDLLHGSEFVLTYEDKDGDWMLVGDVPWEIFTETCQKLKIMKGSDSIGLAPGAVEKSKNKERV
B3: the binding result in assay [3] and in assay [4] was “binds” in each case.

B4: IAA8^AAA-NLuc (protein, UniProt Q38826 1-321)
chain: MSYRLLSVDKDELVTSPCLKERNYLGLSDCSSVDSSTIPNVVGKSNLNFKATELRLGLPESQSPERETDFGLLAPRAPDEKLLFPLLPSKDNGSATTGHKNVVSGNKRGFADTWDEFSGVKGSVRPGGGINMMLAPKVKDVSKSIQEERSHAKGGLNNAPAAKAQVVGWPPIRSYRKNTMASSTSKNTDEVDGKPGLGVLFVKVSMDGAPYLRKVDLRTYTSYQQLSSALEKMFSCFTLGQCGLHGAQGRERMSEIKLKDLLHGSEFVLTYEDKDGDWMLVGDVPWEIFTETCQKLKIMKGSDSIGLAPGAVEKSKNKERV
Regarding B4, the binding result in assay [2] was “binds”.

B5: IAA8^DDD-NLuc (protein, UniProt Q38826 1-321)
chain: MSYRLLSVDKDELVTSPCLKERNYLGLSDCSSVDSSTIPNVVGKSNLNFKATELRLGLPESQSPERETDFGLLDPRDPDEKLLFPLLPSKDNGSATTGHKNVVSGNKRGFADTWDEFSGVKGSVRPGGGINMMLDPKVKDVSKSIQEERSHAKGGLNNAPAAKAQVVGWPPIRSYRKNTMASSTSKNTDEVDGKPGLGVLFVKVSMDGAPYLRKVDLRTYTSYQQLSSALEKMFSCFTLGQCGLHGAQGRERMSEIKLKDLLHGSEFVLTYEDKDGDWMLVGDVPWEIFTETCQKLKIMKGSDSIGLAPGAVEKSKNKERV
On to B5, for which the binding result in assay [2] is on record as “binds”.

B6: CLuc-RAR1 (protein, UniProt Q9SE33 1-226)
chain: MEVGSATKKLQCQRIGCNAMFTDDDNPQGSCQFHASGPFFHDGMKEWSCCKQRSHDFSLFLEIPGCKTGKHTTEKPVLAKSVPKHPVAAPTSSPDANAATKDSCSRCRQGFFCSDHGSQPKEQIKQTLNTPGQAEEEKIEPLAPPVQKAVIDINQPQVCKNKGCGQTFKERDNHETACSHHPGPAVFHDRLRGWKCCDVHVKEFDEFMEIPPCTKGWHSSSPDPAV
With B6, the binding result with SGT1a-NLuc is reported as “binds”.
